Like-named read-outs stand apart in the source and are kept apart here. No constants are given. Whether binding was seen depends on the method and setting. In cells and extracts the contact can be indirect. Here binding means that the protein was enriched with, or labelled near, the bait; the list need not be complete. Each block holds one molecule with its values, some of them ahead of it.
Legend:
[1] = target: 4-hydroxyphenylpyruvic acid dioxygenase (HPD), endogenous human (human (endogenous in HEK293T and LO2)) (UniProt P32754); experiment: affinity purification with mass spectrometry; HPD immunoprecipitated from HEK293T cells; bands cut from SDS-PAGE, trypsin digest, LC-MS/MS (Orbitrap Elite), Mascot search
[2] = target: 4-hydroxyphenylpyruvic acid dioxygenase (HPD), endogenous human (human (endogenous in HEK293T and LO2)) (UniProt P32754); experiment: as above; remark: listed apart in the source

Amino acid sequences for entries named in this document (tags omitted).
UniProt P32754: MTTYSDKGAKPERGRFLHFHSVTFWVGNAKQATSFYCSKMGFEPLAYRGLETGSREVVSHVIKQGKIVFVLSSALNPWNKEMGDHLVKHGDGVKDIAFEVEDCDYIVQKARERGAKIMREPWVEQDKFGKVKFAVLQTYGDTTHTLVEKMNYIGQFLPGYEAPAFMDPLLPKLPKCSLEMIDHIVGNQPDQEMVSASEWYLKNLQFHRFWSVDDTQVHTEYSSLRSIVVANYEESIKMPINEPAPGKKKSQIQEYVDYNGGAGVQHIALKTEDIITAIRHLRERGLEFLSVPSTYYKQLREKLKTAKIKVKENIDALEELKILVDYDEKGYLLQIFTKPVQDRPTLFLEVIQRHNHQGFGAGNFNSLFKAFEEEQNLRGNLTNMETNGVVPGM
UniProt Q9BYT3: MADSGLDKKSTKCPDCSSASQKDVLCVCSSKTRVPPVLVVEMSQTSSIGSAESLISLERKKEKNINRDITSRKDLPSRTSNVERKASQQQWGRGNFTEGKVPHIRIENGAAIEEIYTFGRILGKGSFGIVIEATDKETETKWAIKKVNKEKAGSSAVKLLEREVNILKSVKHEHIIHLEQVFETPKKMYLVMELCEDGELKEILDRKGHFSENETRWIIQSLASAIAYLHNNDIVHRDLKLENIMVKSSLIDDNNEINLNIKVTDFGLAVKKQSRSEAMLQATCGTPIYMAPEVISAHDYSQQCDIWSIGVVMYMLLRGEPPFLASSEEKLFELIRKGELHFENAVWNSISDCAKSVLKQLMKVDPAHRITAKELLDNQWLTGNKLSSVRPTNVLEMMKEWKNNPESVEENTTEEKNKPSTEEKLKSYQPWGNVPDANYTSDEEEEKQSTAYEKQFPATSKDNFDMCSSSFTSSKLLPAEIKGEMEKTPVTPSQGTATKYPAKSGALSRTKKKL

binding [1]: binds
Molecule: serine/threonine kinase 33 (STK33), endogenous human (from UniProt Q9BYT3 1-514)

binding [2]: binds
B1: tetratricopeptide repeat domain 36 (TTC36), endogenous human (protein, UniProt A6NLP5 1-189)
chain: MGTPNDQAVLQAIFNPDTPFGDIVGLDLGEEAEKEEREEDEVFPQAQLEQSKALELQGVMAAEAGDLSTALERFGQAICLLPERASAYNNRAQARRLQGDVAGALEDLERAVELSGGRGRAARQSFVQRGLLARLQGRDDDARRDFERAARLGSPFARRQLVLLNPYAALCNRMLADMMGQLRRPRDSR

— PMC6753076
